The list does not hold the whole screen: it is rich in T/C values a quarter to a half above the control, in often repeated tests (any T/C) and in doses without a T/C. Other doses and runs of a compound stand elsewhere. T/C is the treated group as % of the vehicle group. Some entries give survivors of the animals treated and no T/C: the source holds a T/C of zero for them, seemingly a mark for toxic or unscored doses. Some doses without a T/C left all or most animals alive at the check, yet need not have been tolerated: the source hardly ever lists a survival T/C far under the control, and the zero likely stands for such cases as well. Survivors were counted at the toxicity check, usually on the fifth day, unless a day is given; later deaths do not show. Schedules are NCI's codes, taken here to give the interval after Q, in days (D) or hours (H), and the number of doses after X. Some doses were run more than once; the values are given in rising order. For survival time, the PubChem record calls one and a half times the control and up active, and a quarter to a half above the control has no call in these data; cut-offs in other NCI protocols can differ. Some T/C values are followed by the survivors on the day toxicity was checked, most often the fifth; without a count, all were alive then. Signs of the kind (2×) give the number of equal values in this list.
System: P388 leukemia ip, CD2F1 mice, survival T/C
Experiment: NCI In Vivo Anticancer Drug Screen. Data for tumor model P388 Leukemia (intraperitoneal) in CD2F1 (CDF1) mice
Settings: T/C endpoint: median survival time, higher T/C = longer survival
[1] = dose: 125.0 mg/kg/injection, schedule: Q01DX001 (ip), vehicle: Klucel (hydroxypropylcellulose) (HPC)
[2] = dose: 150.0 mg/kg/injection, schedule: Q04DX003 (ip), vehicle: Klucel (hydroxypropylcellulose) (HPC)
[3] = dose: 250.0 mg/kg/injection, schedule: Q01DX001 (ip), vehicle: Klucel (hydroxypropylcellulose) (HPC)

In the case of `CCCCCCCCCCCCCCCC(=O)OCC1OC(n2ccc(N)nc2=O)C(O)C1O` (stereo not given), the survivor count (dose: 62.5 mg/kg/injection, schedule: Q01DX001 (ip), vehicle: Klucel (hydroxypropylcellulose) (HPC)) is reported as 6 of 6, the T/C (dose: 75.0 mg/kg/injection, schedule: Q04DX002 (ip), vehicle: Klucel (hydroxypropylcellulose) (HPC), evaluated on day 30) is reported as 144, 169 [5 of 6 alive], 170, 175, 208, 221, 227, 228, 231, 234, 248, 250, 251, 252, 254, 259, 260 (3×), 263 [2 of 2 alive], 265, 267, 272, 274, 275, 283 (2×), 284, 285, 288, 296 % of control and the T/C (dose: 75.0 mg/kg/injection, schedule: Q04DX002 (ip), vehicle: Klucel (hydroxypropylcellulose) (HPC), evaluated on day 35) is reported as 240, 254, 317 % of control. For the same molecule, the survivor count (dose: 75.0 mg/kg/injection, schedule: Q04DX002 (ip), vehicle: Klucel (hydroxypropylcellulose) (HPC)) was 3 of 3 and 6 of 6, the T/C (dose: 75.0 mg/kg/injection, schedule: Q04DX003 (ip), vehicle: Klucel (hydroxypropylcellulose) (HPC)) was 150, 176, 207, 221, 223, 229, 240 [2 of 3 alive], 242, 243, 247, 249, 256 (2×), 257, 258, 260, 262, 265 (2×), 265 [4 of 6 alive], 267, 270 (2×), 274 (2×), 277 (2×), 283, 285, 288, 290, 291, 294, 300 % of control and the T/C (dose: 100.0 mg/kg/injection, schedule: Q01DX001 (ip), vehicle: saline with Tween-80, evaluated on day 5) was 212 and 409 % of control. The T/C (dose: 100.0 mg/kg/injection, schedule: Q01DX001 (ip), vehicle: saline with Tween-80, evaluated on day 47) was 251 % of control, the T/C (dose: 100.0 mg/kg/injection, schedule: Q01DX001 (ip), vehicle: saline with Tween-80, evaluated on day 48) was 226 % of control and the T/C (dose: 100.0 mg/kg/injection, schedule: Q01DX001 (ip), vehicle: saline with Tween-80, evaluated on day 60) was 206, 262, 295 % of control. For the same molecule, the T/C [1] was 102, 114, 128, 158, 163, 209 [5 of 6 alive], 215, 230, 250, 256, 258, 259, 260 (2×), 262, 265 (2×), 268, 270, 272 (2×), 277 (2×), 278, 285 (2×), 290, 297 (2×), 297 [5 of 6 alive], 300 % of control, the survivor count [1] was 6 of 6 and the T/C (dose: 125.0 mg/kg/injection, schedule: Q01DX001 (ip), vehicle: saline with Tween-80, evaluated on day 5) was 200 and 569 % of control. The T/C (dose: 125.0 mg/kg/injection, schedule: Q01DX001 (ip), vehicle: saline with Tween-80, evaluated on day 30) was 207, 275, 285, 291, 300, 306 % of control, the T/C (dose: 125.0 mg/kg/injection, schedule: Q01DX001 (ip), vehicle: saline with Tween-80, evaluated on day 44) was 333 and 396 % of control and the T/C (dose: 125.0 mg/kg/injection, schedule: Q01DX001 (ip), vehicle: saline with Tween-80, evaluated on day 45) was 210, 300, 365, 375, 420, 445 % of control. The T/C (dose: 125.0 mg/kg/injection, schedule: Q01DX001 (ip), vehicle: saline with Tween-80, evaluated on day 47) was 292 and 310 % of control, the T/C (dose: 125.0 mg/kg/injection, schedule: Q01DX001 (ip), vehicle: saline with Tween-80, evaluated on day 48) was 252 % of control and the T/C (dose: 125.0 mg/kg/injection, schedule: Q01DX001 (ip), vehicle: saline with Tween-80, evaluated on day 60) was 185, 255, 277, 346, 373, 382, 396, 504, 588, 631 % of control. For the same molecule, the T/C (dose: 150.0 mg/kg/injection, schedule: Q01DX001 (ip), vehicle: saline with Tween-80, evaluated on day 20) was 181 % of control, the T/C (dose: 150.0 mg/kg/injection, schedule: Q01DX001 (ip), vehicle: saline with Tween-80, evaluated on day 30) was 256, 275, 285, 291, 300, 306 % of control and the T/C (dose: 150.0 mg/kg/injection, schedule: Q01DX001 (ip), vehicle: saline with Tween-80, evaluated on day 44) was 342 and 396 % of control. The T/C (dose: 150.0 mg/kg/injection, schedule: Q01DX001 (ip), vehicle: saline with Tween-80, evaluated on day 45) was 226, 284, 326, 415, 420, 432 % of control, the T/C (dose: 150.0 mg/kg/injection, schedule: Q01DX001 (ip), vehicle: saline with Tween-80, evaluated on day 47) was 292 and 336 % of control and the T/C (dose: 150.0 mg/kg/injection, schedule: Q01DX001 (ip), vehicle: saline with Tween-80, evaluated on day 48) was 291 % of control. The T/C (dose: 150.0 mg/kg/injection, schedule: Q01DX001 (ip), vehicle: saline with Tween-80, evaluated on day 60) was 285, 310 [9 of 10 alive], 357, 517, 554, 576 (2×), 588 (2×), 631 % of control, the T/C (dose: 150.0 mg/kg/injection, schedule: Q04DX002 (ip), vehicle: Klucel (hydroxypropylcellulose) (HPC), evaluated on day 30) was 90, 95, 113, 115, 121, 131, 134, 135 [5 of 6 alive], 165, 178, 184, 195, 224, 225, 251, 260 [2 of 3 alive], 263, 265, 267, 272, 275, 275 [5 of 6 alive], 280, 283 (2×), 284 (2×), 285 % of control and the T/C (dose: 150.0 mg/kg/injection, schedule: Q04DX002 (ip), vehicle: Klucel (hydroxypropylcellulose) (HPC), evaluated on day 35) was 210, 318, 326 % of control. The survivor count (dose: 150.0 mg/kg/injection, schedule: Q04DX002 (ip), vehicle: Klucel (hydroxypropylcellulose) (HPC)) was 3 of 3 and 6 of 6, the T/C [2] was 88, 91, 92 (3×), 94, 97, 99, 100, 105, 107, 108 (3×), 110 (2×), 113, 114 (2×), 115, 116, 119, 120 (2×), 125, 127, 145, 208, 245, 262, 265, 266 % of control [5 of 6 alive] and the survivor count [2] was 3 of 3. The T/C [3] was 151, 171 [5 of 6 alive], 175, 179, 191, 210, 220, 241 [5 of 6 alive], 253, 256, 258, 260, 267 (2×), 270, 272 (2×), 275, 277, 282, 283, 285, 287, 288, 296, 297 (2×), 300 % of control, the survivor count [3] was 3 of 3 and 6 of 6 and the survivor count (dose: 250.0 mg/kg/injection, schedule: Q04DX002 (ip), vehicle: Klucel (hydroxypropylcellulose) (HPC)) was 3 of 3 and 6 of 6. The survivor count (dose: 300.0 mg/kg/injection, schedule: Q01DX001 (ip), vehicle: saline with Tween-80) was 6 of 6 and the survivor count (dose: 600.0 mg/kg/injection, schedule: Q01DX001 (ip), vehicle: saline with Tween-80) was 2 of 6.

Source: PubChem BioAssay AID330 (DTP/NCI, 2004)
